Assay results from patent US8153431B2, “Compositions and methods for making mutations in cell lines and animals” (ABT Holding Company, priority 2001, dated 2012).

System: single copy HPRT gene
Experiment: Mutation rate by knockout of single copy HPRT gene (6-thioguanine selection) in Jurkat cells
Assay type: cell-based, human
Source text: The ability to identify all genetic mutations that can create a phenotype requires that large numbers of mutations be created in as few cells as possible, and the high efficiency of ENU chemical mutagenesis is suited to this task. We set out to determine the ENU treatment needed to create 50-100 cell libraries in which all genes are mutated at least once (defined as a 1× knockout library) in Jurkat cells. To characterize the mutagenesis we measured both cell survival and the mutation rate in characterizing the optimal ENU treatment (Table I). Survival was determined by limiting dilution, and the mutation rate was estimated in the population of surviving clones based on the frequency of knocking out the single copy HPRT gene (assayed by the survival of such HPRT^− cells upon culture in the presence of 6-thioguanine). As shown in the table below, at an ENU dose of 0.2 mg/ml the mutation rate is 0.02 HPRT^− genes/cell and the 1× library size is therefore ˜50 cells. Creation of libraries of these densely mutagenized cells provides a genetically sensitized background in which small increments of further mutagenesis can create phenotypes by knocking out the sole remaining wild type alleles of ENU-mutated genes.
• Jurkat cells were treated with 10 uM O-6-BG (Sigma) at 5×10^5 cells/ml for 16 hours at 37° C. in a humidified incubator with 5% CO2. The pretreated cells were then incubated with desired concentration of ENU (Sigma) in the presence of O-6-BG for 2 hours at 37° C. with constant shaking. At the end of incubation cells were washed with 10-volume 1×PBS three times and resuspended in complete media with 10 uM O-6-BG. 24 hours later O-6-BG was washed off, cells were resuspended in complete media and seeded onto 96-well plate at 20 cells per well or 400-2000 cells per well. Cells were then cultured for 10 days. Viability is determined by the lower density seeding based on number of wells containing growing colonies. To determine mutation frequency, cells seeded at the higher density were used to select for Hprt-loss of function mutants in the presence of 40 uM 6-TG (Sigma). Number of wells containing growing colonies in the presence of 6-TG was scored 7-10 days later. Mutation frequency is calculated as # of 6-TG resistant colony divided by # of viable cells seeded.

Row | SMILES | 1× library size (0.7 mg/ml EMS) | 1× library size (ENU 0.1 mg/ml, number of ENU treated clones needed to contain mutations) [clones] | 1× library size (ENU 0.125 mg/ml, number of ENU treated clones needed to contain mutations) [clones] | 1× library size (ENU 0.15 mg/ml, number of ENU treated clones needed to contain mutations) [clones] | 1× library size (ENU 0.175 mg/ml, number of ENU treated clones needed to contain mutations) [clones] | 1× library size (ENU 0.2 mg/ml, number of ENU treated clones needed to contain mutations) [clones] | 1× library size (ENU 0.25 mg/ml, number of ENU treated clones needed to contain mutations) [clones] | 1× library size (ENU dose of 0.2 mg/ml) [cells]
1 | CCOS(C)(=O)=O [EMS, ethylmethanesulphonate] | about 100 cells |  |  |  |  |  |  | 
2 | CCN(N=O)C(N)=O [ENU, N-ethyl-N-nitrosourea] |  | 417 | 204 | 164 | 122 | 50 | 31 | ~50
